“Also recorded” adds a separate entry of the source. Not every detail of the peptide structures is certain; ends, links or a residue may be inferred. Positions of bridges follow the written chain, without caps; N, C: chain ends. Non-standard residues stand in square brackets, D forms with d. Residues, ends and D or L forms follow the SMILES beside them. d2Nal = N[C@H](Cc1ccc2ccccc2c1)C(=O)O; Nle = CCCC[C@H](N)C(=O)O
Tests used:
Lewis sarcoma rat = assay: Reversal of cachexia-induced lethargy; assay type: in vivo; settings: once-daily peripheral dosing for 48 hours (2 IP doses), irrespective of tumor load
Excerpt: In animals and humans, cachexia produces “lethargy,” i.e., the aversion to activity. Grossberg et al., J. Neurosci. 31(31): 11376-11386. […] This therapeutic effect is dependent on a stabilized melanocortin antagonist C-terminal extension. Video recordings characterized control animal behavior as neo-exploratory movement about the cage, i.e., repeated “sniffing” the air to presumably sample odors (e.g., neighboring animals), grooming, and intermittent bouts of eating and drinking. Caldecott-Hazard et al., J. Neurosci. 8(6): 1951-1961 (1988).
The animal typically remains in one position for an extended period of time (>1 minute). Occasionally it will change position, assuming the new position for an extended period. The rats show no grooming behavior, evident in the appearance of their coat and eyes.

[1] = tested on: LPS-induced cachexia in rats; assay: Lipopolysaccharide (LPS)-induced cachexia assay; assay type: in vivo, rat
Method: The LPS model uses rats were maintained on a 12 h light/dark schedule with ad libitum access to food and water. Animals were handled daily for a minimum of three consecutive days to decrease non-specific handling stress. On the day of the experiment, individually housed animals received intraperitoneal injections of LPS dissolved in 0.5% low-endotoxin BSA, 0.9% saline or 0.5% BSA in 0.9% saline alone, and were returned to their home cage. The drug or control was administered (ICV, IP, or PO, depending on the type of study) 1-hour after LPS injection.
In the experiments described herein, a series of melanocortin receptor antagonist peptides were examined in a bacterial endotoxin inducing cachexia assay. For this assay, a rat is challenged with a single peripheral injection of lipopolysaccharide (LPS). LPS is a heat-stable lipo-polysaccharide, the major component of the outer membrane (capsule) of gram negative bacteria. In non-capsulated strains, it appears as a cell surface […]. LPS produces a strong immune response, including secretion of the proinflammatory cytokines Tumor Necrosis Factor α (TNFα) and interleukin-1 (IL-1). Proinflammatory cytokines are known factors that induce cachexia.
Rats are maintained on a 12-hour light/dark cycle. Animals are handled daily for a minimum of 5 consecutive days to acclimate them to the handling required for the experiment. […] On the day of the experiment, individually housed animals receive intraperitoneal (IP) injections of LPS dissolved in 0.5% low-endotoxin BSA, 0.9% saline or 0.5% BSA in 0.9% saline alone, and returned in their home cage. Melanocortin receptor antagonist peptides were administered (IP or by gavage, depending on the type of study) one hour after the LPS injection. The extent of cachexia is measured by the reduction in food intake, measured every two hours. The cachexia typically lasts only a single day. However, rats lose up to 5% of their body weight during a 12-hour light cycle, making up this loss plus food needed for normal growth during the 12-hour dark cycle. Thus, failure to eat appropriately during a single dark cycle is determinable from the animal's weight and any changes thereof.
A series of melanocortin receptor antagonist peptides were examined in a bacterial toxin inducing cachexia assay. In this assay, a rat was challenged with a single peripheral injection of lipopolysaccharide (LPS), a bacterial toxin that rapidly induces acute cachexia. The extent of cachexia was measured as a reduction in food intake, measured every two hours. The cachexia typically lasts only a single day.

In the case of `CCCC[C@H](NC(C)=O)C(=O)N[C@H]1CC(=O)NCCCC[C@@H](C(=O)N2CCC[C@@H]2C(=O)N[C@@H](C(N)=O)C(C)C)NC(=O)[C@H](Cc2c[nH]c3ccccc23)NC(=O)[C@H](CCCNC(=N)N)NC(=O)[C@@H](Cc2ccc3ccccc3c2)NC(=O)[C@@H]2CCCN2C1=O` [TCMCB02, Ac-Nle-c[Asp-Pro-D-Nal(2′)-Arg-Trp-Lys]-D-Pro-D-Val-NH2] (Ac-[Nle]DP[d2Nal]RWK[dP][dV]-NH2; lactam 2-7 (inferred)), the “behavior of cachectic (lethargic) rats” value (Lewis sarcoma rat) is reported as “restored “normal” behavior to rats”, the “body weight gain overnight” value ([1]; 2 mg/kg IP after LPS, FIG. 7B) is reported as roughly 5% and the “food intake in 12-hour overnight assay, percent of baseline (previous 4-day average)” value ([1]; 2 mg/kg IP after LPS, saline controls 40%, FIG. 7A) is reported as 65%. The “anti-cachectic activity compared to the parent compound, PG932” value ([1]; Lewis sarcoma rat model and LPS model) was “enhanced anti-cachectic activity”, the “oral activity / gastrointestinal transport (in words)” value ([1]; gavage (intra-gastric) administration, LPS cachexia) was “did not have oral activity; also recorded: no oral activity” and the “anti-cachectic activity after ICV (IVt) administration (in words)” value ([1]; intracerebroventricular administration, LPS model) was “equivalent to TCMCB01”. For the same compound, the “peripheral (IP) anti-cachexia activity, feeding (in words)” value ([1]; peripheral / intraperitoneal administration after LPS) was “has peripheral activity, significantly reversing LPS-induced cachexia; also recorded: produced anti-cachexia following peripheral administration; also recorded: had peripheral LPS-anti-cachexia activity” and the “anti-cachectic activity relative to the “parent” compound (TCMCB01)” value ([1]; rat, in vivo) was 10 fold.

— patent US20170081383A1, “MELANOCORTIN ANALOGS HAVING ENHANCED ACTIVITY AND TRANSPORT” (Tensive Controls Inc., priority 2012, published 2017)
